Measurements as given in the supplement of paper PMC12823440, “Inhibitors supercharge kinase turnover through native proteolytic circuits” (Nature, 2025).
Structures can show the parent of a compound that is named as a salt. Some of the results follow. Hit calls seldom repeat between salt and free forms of one compound.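 Kinases, fused to nanoluciferase, were expressed in K562 cells; luminescence was measured every 4 h from 2 to 18 h as percent of control (DMSO = 100%, positive control = 0%). A time point is decreased if signal falls significantly (2 sigma). Hits were called by the authors by a rule that is not shown; the count of time points alone does not decide it.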

By UniProt entry, the sequences of proteins in these tests, tags left out. Where a name states a change or a piece, a line headed by the entry shows the natural chain unless it says otherwise.
UniProt P28482, whole entry: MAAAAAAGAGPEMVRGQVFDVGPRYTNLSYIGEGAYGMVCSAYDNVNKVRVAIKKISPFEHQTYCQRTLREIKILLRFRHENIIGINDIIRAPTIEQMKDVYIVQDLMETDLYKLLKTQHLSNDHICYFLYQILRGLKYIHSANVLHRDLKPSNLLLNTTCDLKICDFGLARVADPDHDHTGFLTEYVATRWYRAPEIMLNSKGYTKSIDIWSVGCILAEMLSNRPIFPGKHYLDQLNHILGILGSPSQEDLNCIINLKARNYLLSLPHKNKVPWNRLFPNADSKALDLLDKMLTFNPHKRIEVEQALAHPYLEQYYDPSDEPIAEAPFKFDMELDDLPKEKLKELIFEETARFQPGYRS
UniProt P31152, whole entry: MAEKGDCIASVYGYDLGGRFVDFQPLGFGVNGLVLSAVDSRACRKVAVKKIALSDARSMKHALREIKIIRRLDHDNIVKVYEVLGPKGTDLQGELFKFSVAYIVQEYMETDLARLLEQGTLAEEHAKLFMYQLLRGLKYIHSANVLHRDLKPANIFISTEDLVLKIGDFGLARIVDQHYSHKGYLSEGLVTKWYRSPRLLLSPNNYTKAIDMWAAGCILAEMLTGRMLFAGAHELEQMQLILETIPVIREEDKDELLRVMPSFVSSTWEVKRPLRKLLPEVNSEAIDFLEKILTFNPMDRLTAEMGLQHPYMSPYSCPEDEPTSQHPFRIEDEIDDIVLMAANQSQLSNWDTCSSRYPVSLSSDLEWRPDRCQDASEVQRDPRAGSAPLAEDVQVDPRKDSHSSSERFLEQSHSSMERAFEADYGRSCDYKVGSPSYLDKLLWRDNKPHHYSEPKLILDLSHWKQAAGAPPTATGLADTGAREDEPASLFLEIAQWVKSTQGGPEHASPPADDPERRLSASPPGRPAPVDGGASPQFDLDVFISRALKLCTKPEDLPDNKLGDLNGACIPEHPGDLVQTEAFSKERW
UniProt P49137, whole entry, looked up: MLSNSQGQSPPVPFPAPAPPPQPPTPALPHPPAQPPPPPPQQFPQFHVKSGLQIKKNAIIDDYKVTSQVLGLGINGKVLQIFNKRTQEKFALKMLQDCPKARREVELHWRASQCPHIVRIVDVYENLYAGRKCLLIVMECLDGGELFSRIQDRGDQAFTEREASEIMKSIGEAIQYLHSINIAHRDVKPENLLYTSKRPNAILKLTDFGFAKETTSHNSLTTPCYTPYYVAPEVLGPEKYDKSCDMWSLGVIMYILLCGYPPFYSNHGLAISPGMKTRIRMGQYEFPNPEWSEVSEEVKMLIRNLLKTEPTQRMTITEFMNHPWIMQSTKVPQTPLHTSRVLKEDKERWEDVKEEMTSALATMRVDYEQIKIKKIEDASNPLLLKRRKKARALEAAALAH
UniProt Q9BUB5: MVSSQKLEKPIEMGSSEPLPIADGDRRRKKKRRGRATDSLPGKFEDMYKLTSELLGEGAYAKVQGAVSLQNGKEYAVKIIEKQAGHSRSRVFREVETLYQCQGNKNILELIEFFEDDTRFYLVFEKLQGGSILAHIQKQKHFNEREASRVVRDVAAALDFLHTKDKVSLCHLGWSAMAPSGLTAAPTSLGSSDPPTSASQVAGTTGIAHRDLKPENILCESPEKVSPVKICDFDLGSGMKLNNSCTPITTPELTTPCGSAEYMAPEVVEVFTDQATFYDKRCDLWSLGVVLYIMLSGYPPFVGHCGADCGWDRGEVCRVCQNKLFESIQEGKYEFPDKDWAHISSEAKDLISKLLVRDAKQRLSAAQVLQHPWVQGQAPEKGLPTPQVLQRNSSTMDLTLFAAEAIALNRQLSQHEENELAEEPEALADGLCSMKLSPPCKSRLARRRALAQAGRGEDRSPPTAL
UniProt Q16620, whole entry, looked up: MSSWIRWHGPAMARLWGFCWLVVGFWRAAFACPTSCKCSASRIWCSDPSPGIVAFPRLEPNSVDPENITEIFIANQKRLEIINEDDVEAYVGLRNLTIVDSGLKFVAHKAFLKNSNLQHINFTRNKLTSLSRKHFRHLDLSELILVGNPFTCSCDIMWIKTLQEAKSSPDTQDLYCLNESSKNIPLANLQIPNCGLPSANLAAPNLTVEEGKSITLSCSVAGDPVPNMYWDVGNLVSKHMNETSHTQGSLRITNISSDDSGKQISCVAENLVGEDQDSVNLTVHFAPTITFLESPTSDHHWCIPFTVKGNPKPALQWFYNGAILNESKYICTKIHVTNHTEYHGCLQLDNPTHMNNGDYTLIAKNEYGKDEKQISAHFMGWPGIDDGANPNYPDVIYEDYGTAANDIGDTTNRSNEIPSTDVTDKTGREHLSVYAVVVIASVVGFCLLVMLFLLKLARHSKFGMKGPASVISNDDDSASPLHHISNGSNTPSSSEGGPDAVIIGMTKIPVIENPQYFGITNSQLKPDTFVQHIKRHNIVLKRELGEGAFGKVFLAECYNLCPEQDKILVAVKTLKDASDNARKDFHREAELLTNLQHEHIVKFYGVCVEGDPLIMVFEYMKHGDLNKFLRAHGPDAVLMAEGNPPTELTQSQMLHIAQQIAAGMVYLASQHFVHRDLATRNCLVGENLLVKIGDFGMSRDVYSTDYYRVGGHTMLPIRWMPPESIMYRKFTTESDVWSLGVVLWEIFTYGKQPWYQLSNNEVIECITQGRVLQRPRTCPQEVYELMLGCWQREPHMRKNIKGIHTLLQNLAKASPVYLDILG
UniProt Q16288, whole entry, looked up: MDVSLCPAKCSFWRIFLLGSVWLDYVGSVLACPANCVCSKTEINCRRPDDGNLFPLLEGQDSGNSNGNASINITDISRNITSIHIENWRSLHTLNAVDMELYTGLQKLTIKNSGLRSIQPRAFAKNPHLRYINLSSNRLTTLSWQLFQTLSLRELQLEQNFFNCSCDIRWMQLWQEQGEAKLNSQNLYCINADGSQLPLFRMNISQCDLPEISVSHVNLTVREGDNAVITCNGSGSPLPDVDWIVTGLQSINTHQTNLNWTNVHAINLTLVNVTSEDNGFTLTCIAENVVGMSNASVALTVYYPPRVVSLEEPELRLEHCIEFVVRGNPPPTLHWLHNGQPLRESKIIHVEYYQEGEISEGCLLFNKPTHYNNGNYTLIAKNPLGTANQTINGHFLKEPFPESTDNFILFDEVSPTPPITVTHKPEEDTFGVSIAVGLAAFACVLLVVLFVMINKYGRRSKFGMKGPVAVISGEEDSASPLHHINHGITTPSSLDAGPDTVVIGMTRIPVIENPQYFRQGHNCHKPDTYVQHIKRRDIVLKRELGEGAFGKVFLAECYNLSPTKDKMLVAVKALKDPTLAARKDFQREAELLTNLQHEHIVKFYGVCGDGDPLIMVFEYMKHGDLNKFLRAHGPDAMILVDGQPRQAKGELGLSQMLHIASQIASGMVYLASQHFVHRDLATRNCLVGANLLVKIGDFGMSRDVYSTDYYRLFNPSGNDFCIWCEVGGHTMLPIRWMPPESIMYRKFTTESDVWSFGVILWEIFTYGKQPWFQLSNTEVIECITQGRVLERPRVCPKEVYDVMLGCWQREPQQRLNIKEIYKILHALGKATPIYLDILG
UniProt O96013: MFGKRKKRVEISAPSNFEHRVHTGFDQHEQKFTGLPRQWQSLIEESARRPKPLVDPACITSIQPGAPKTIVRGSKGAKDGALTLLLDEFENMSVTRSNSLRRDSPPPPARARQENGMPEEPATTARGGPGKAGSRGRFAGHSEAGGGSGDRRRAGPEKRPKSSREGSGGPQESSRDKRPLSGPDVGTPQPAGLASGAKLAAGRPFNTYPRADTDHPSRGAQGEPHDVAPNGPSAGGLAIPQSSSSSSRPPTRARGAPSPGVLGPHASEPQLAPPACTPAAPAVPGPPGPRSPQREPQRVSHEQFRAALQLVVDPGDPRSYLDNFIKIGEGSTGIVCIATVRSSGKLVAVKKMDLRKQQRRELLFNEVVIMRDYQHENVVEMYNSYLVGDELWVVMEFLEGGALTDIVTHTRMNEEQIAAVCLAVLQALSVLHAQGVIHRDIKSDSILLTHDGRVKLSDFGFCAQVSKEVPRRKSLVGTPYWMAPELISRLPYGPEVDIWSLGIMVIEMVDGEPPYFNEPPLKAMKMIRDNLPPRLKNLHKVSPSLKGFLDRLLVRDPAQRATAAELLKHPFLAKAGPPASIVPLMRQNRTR
UniProt Q96KB5: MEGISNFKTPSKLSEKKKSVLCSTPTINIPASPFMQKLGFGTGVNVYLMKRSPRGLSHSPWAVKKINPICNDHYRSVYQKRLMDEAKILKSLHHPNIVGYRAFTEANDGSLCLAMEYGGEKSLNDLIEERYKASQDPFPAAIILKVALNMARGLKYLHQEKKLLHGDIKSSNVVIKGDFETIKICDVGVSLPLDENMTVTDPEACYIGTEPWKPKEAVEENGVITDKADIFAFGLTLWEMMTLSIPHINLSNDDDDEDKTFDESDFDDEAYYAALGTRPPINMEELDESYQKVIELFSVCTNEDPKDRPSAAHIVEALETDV
UniProt P09619, whole entry: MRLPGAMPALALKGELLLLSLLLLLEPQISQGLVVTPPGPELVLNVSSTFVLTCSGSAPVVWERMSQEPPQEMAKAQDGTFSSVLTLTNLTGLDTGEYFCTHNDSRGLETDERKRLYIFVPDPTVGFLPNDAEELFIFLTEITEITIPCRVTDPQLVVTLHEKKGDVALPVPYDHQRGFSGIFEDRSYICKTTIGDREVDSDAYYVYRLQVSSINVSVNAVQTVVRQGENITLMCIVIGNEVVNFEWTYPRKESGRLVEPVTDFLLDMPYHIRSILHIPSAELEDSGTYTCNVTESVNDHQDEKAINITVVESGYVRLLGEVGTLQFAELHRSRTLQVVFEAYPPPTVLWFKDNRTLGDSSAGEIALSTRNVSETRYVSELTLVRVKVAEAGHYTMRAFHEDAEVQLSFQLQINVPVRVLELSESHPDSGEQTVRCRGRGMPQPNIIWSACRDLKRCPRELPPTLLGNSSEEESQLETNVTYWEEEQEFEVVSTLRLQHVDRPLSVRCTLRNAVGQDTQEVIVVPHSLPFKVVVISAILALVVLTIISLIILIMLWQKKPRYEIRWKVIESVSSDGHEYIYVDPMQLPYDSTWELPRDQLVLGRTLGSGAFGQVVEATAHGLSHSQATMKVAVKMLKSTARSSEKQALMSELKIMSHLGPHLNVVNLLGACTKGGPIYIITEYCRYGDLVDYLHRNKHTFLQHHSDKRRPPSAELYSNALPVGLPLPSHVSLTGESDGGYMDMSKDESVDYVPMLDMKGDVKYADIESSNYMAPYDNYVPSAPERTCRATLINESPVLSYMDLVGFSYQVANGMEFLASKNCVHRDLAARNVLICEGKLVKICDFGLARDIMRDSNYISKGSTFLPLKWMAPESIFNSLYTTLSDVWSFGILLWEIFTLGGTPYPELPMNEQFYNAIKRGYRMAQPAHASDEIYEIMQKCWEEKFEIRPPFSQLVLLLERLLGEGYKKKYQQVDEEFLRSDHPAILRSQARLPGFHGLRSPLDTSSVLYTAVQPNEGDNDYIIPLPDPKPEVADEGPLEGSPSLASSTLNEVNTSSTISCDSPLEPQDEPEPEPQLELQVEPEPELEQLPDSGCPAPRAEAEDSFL
UniProt Q15118, whole entry, looked up: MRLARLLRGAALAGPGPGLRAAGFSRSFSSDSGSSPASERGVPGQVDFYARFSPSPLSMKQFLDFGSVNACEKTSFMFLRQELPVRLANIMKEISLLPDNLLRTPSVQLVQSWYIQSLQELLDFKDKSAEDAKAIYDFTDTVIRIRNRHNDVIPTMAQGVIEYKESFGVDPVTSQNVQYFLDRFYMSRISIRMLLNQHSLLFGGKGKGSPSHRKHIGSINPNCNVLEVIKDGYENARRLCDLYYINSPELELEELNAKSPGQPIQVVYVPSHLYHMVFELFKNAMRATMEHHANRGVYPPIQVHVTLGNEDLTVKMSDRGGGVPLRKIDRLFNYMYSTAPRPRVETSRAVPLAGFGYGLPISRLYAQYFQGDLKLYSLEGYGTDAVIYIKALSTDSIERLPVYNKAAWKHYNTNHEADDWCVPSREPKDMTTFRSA

Legend:
Assay in all cases: kinase-Nluc reporter destabilization hit call (1 = scored as downregulated) (binary); higher = compound decreases kinase abundance
Details in all cases: K562; 2-18 h
MAPK1 = MAPK1 (UniProt P28482)
MAPK4 = MAPK4 (UniProt P31152)
MAPKAPK2 = MAPKAPK2 (UniProt P49137)
MKNK1 = MKNK1 (UniProt Q9BUB5)
NTRK2 = NTRK2 (UniProt Q16620)
NTRK3 = NTRK3 (UniProt Q16288)
PAK4 = PAK4 (UniProt O96013)
PBK = PBK (UniProt Q96KB5)
PDGFRB = PDGFRB (UniProt P09619)
PDK1 = PDK1 (UniProt Q15118)

Measured: kinase-Nluc reporter destabilization hit call

C[C@@H]1O[C@@H](OC[C@H]2O[C@@H](Oc3cc(O)c4c(c3)O[C@H](c3ccc(O)cc3)CC4=O)[C@H](O)[C@@H](O)[C@@H]2O)[C@H](O)[C@H](O)[C@H]1O [Narirutin] (10 µM)
inactive: MAPK1 = 0 | MAPK4 = 0 | MAPKAPK2 = 0 | MKNK1 = 0 | NTRK2 = 0 | NTRK3 = 0 | PAK4 = 0 | PBK 0 | PDGFRB 0 | PDK1 = 0

CC(C)c1cc(/C=C(\C#N)C(N)=O)cc(C(C)C)c1O (10 µM)
inactive: MAPK1 = 0 | MAPK4 = 0 | MAPKAPK2 = 0 | MKNK1 = 0 | NTRK2 = 0 | NTRK3 = 0 | PAK4 = 0 | PBK 0 | PDGFRB 0 | PDK1 = 0

O=C(O)c1cc(O)c2c(c1)[C@@H]([C@H]1c3cc(C(=O)O)cc(O)c3C(=O)c3c(O[C@@H]4O[C@H](CO)[C@@H](O)[C@H](O)[C@H]4O)cccc31)c1cccc(O[C@@H]3O[C@H](CO)[C@@H](O)[C@H](O)[C@H]3O)c1C2=O [Sennoside B] (2.5 µM)
inactive: MAPK1 = 0 | MAPK4 = 0 | MAPKAPK2 = 0 | MKNK1 = 0 | NTRK2 = 0 | NTRK3 = 0 | PAK4 = 0 | PBK 0 | PDGFRB 0 | PDK1 = 0

Three compounds from above, arranged by SMILES length, ascending:
CC(C)c1cc(/C=C(\C#N)C(N)=O)cc(C(C)C)c1O (10 µM)
inactive: MAPK1 = 0 | MAPK4 = 0 | MAPKAPK2 = 0 | MKNK1 = 0 | NTRK2 = 0 | NTRK3 = 0 | PAK4 = 0 | PBK 0 | PDGFRB 0 | PDK1 = 0

C[C@@H]1O[C@@H](OC[C@H]2O[C@@H](Oc3cc(O)c4c(c3)O[C@H](c3ccc(O)cc3)CC4=O)[C@H](O)[C@@H](O)[C@@H]2O)[C@H](O)[C@H](O)[C@H]1O [Narirutin] (10 µM)
inactive: MAPK1 = 0 | MAPK4 = 0 | MAPKAPK2 = 0 | MKNK1 = 0 | NTRK2 = 0 | NTRK3 = 0 | PAK4 = 0 | PBK 0 | PDGFRB 0 | PDK1 = 0

O=C(O)c1cc(O)c2c(c1)[C@@H]([C@H]1c3cc(C(=O)O)cc(O)c3C(=O)c3c(O[C@@H]4O[C@H](CO)[C@@H](O)[C@H](O)[C@H]4O)cccc31)c1cccc(O[C@@H]3O[C@H](CO)[C@@H](O)[C@H](O)[C@H]3O)c1C2=O [Sennoside B] (2.5 µM)
inactive: MAPK1 = 0 | MAPK4 = 0 | MAPKAPK2 = 0 | MKNK1 = 0 | NTRK2 = 0 | NTRK3 = 0 | PAK4 = 0 | PBK 0 | PDGFRB 0 | PDK1 = 0

(next part)

Cc1nc(NC(=O)NCCc2nnn(CCF)n2)sc1-c1ccc(S(C)(=O)=O)c(F)c1 (10 µM)
inactive: MAPK1 = 0 | MAPK4 = 0 | MAPKAPK2 = 0 | MKNK1 = 0 | NTRK2 = 0 | NTRK3 = 0 | PAK4 = 0 | PBK 0 | PDGFRB 0 | PDK1 = 0

O=C(O)c1ccc(-c2c[nH]c3ncc(-c4ccccc4)cc23)cc1C1CCCC1 (2.5 µM)
inactive: MAPK1 = 0 | MAPK4 = 0 | MAPKAPK2 = 0 | MKNK1 = 0 | NTRK2 = 0 | NTRK3 = 0 | PAK4 = 0 | PBK 0 | PDGFRB 0 | PDK1 = 0

CCN(C)C(=O)c1ccc2c(C(=Nc3ccc(CN4CCCCC4)cc3)c3ccccc3)c(O)[nH]c2c1 (2.5 µM)
inactive: MAPK1 = 0 | MAPK4 = 0 | MAPKAPK2 = 0 | MKNK1 = 0 | NTRK2 = 0 | NTRK3 = 0 | PAK4 = 0 | PBK 0 | PDGFRB 0 | PDK1 = 0

O=C1NCCCc2c1oc1ccc(O)cc21 (10 µM)
inactive: MAPK1 = 0 | MAPK4 = 0 | MAPKAPK2 = 0 | MKNK1 = 0 | NTRK2 = 0 | NTRK3 = 0 | PAK4 = 0 | PBK 0 | PDGFRB 0 | PDK1 = 0

COc1ccc2c(Oc3ccc(NC(=O)c4c(C)n(CC(C)(C)O)n(-c5ccccc5)c4=O)cc3F)ccnc2c1 (2.5 µM)
inactive: MAPK1 = 0 | MAPK4 = 0 | MAPKAPK2 = 0 | MKNK1 = 0 | NTRK2 = 0 | NTRK3 = 0 | PAK4 = 0 | PBK 0 | PDGFRB 0 | PDK1 = 0

COc1nc(-c2ccnc(NC(=O)C3CC3)c2)sc1C(N)=O [GSK-3β inhibitor 2] (10 µM)
inactive: MAPK1 = 0 | MAPK4 = 0 | MAPKAPK2 = 0 | MKNK1 = 0 | NTRK2 = 0 | NTRK3 = 0 | PAK4 = 0 | PBK 0 | PDGFRB 0 | PDK1 = 0

CC(C)(C)Cn1c(N)nc2ccc(-c3[nH]c(C(C)(C)C)nc3-c3ccc(F)cc3)nc21 [Ralimetinib dimesylate] (2.5 µM)
inactive: MAPK1 = 0 | MAPK4 = 0 | MAPKAPK2 = 0 | MKNK1 = 0 | NTRK2 = 0 | NTRK3 = 0 | PAK4 = 0 | PBK 0 | PDGFRB 0 | PDK1 = 0

O=C(O)CCc1ccc(NCc2cccc(Oc3ccccc3)c2)cc1 (10 µM)
inactive: MAPK1 = 0 | MAPK4 = 0 | MAPKAPK2 = 0 | MKNK1 = 0 | NTRK2 = 0 | NTRK3 = 0 | PAK4 = 0 | PBK 0 | PDGFRB 0 | PDK1 = 0

CC1=C(CC(=O)O)c2cc(F)ccc2/C1=C\c1ccc(C(C)C)cc1 (10 µM)
inactive: MAPK1 = 0 | MAPK4 = 0 | MAPKAPK2 = 0 | MKNK1 = 0 | NTRK2 = 0 | NTRK3 = 0 | PAK4 = 0 | PBK 0 | PDGFRB 0 | PDK1 = 0

CCCNC(=O)c1cn2ncnc(Nc3cc(C(=O)NC4CC4)ccc3C)c2c1C (10 µM)
inactive: MAPK1 = 0 | MAPK4 = 0 | MAPKAPK2 = 0 | MKNK1 = 0 | NTRK2 = 0 | NTRK3 = 0 | PAK4 = 0 | PBK 0 | PDGFRB 0 | PDK1 = 0

Nc1nc2cc(-c3ccc4ncc(C(=O)N5CCOCC5)n4c3)ccc2o1 [Serabelisib] (10 µM)
inactive: MAPK1 = 0 | MAPK4 = 0 | MAPKAPK2 = 0 | MKNK1 = 0 | NTRK2 = 0 | NTRK3 = 0 | PAK4 = 0 | PBK 0 | PDGFRB 0 | PDK1 = 0

COC(=O)[C@@]1(C)CC[C@]2(C(=O)O)CC[C@]3(C)C(=CC[C@@H]4[C@@]5(C)C[C@H](O)[C@H](O[C@@H]6OC[C@@H](O[C@@H]7O[C@H](CO)[C@@H](O)[C@H](O)[C@H]7O)[C@H](O)[C@H]6O)[C@@](C)(CO)[C@@H]5CC[C@]43C)[C@@H]2C1 [Esculentoside A] (10 µM)
inactive: MAPK1 = 0 | MAPK4 = 0 | MAPKAPK2 = 0 | MKNK1 = 0 | NTRK2 = 0 | NTRK3 = 0 | PAK4 = 0 | PBK 0 | PDGFRB 0 | PDK1 = 0

CC1(N)CCN(c2cnc3c(-c4cccc(Cl)c4Cl)[nH]nc3n2)CC1 (2.5 µM)
inactive: MAPK1 = 0 | MAPK4 = 0 | MAPKAPK2 = 0 | MKNK1 = 0 | NTRK2 = 0 | NTRK3 = 0 | PAK4 = 0 | PBK 0 | PDGFRB 0 | PDK1 = 0

[O-][n+]1cccc(-c2nc3c(Cl)cccc3cc2[C@@H](Nc2ncnc3cccnc23)C(F)(F)F)c1 [Seletalisib] (10 µM)
inactive: MAPK1 = 0 | MAPK4 = 0 | MAPKAPK2 = 0 | MKNK1 = 0 | NTRK2 = 0 | NTRK3 = 0 | PAK4 = 0 | PBK 0 | PDGFRB 0 | PDK1 = 0

NCCCCCCNS(=O)(=O)c1cccc2c(Cl)cccc12 [W-7 (hydrochloride)] (10 µM)
inactive: MAPK1 = 0 | MAPK4 = 0 | MAPKAPK2 = 0 | MKNK1 = 0 | NTRK2 = 0 | NTRK3 = 0 | PAK4 = 0 | PBK 0 | PDGFRB 0 | PDK1 = 0

C=CC(=O)N1CCC(Oc2cc3c(Nc4ccc(Cl)c(Cl)c4F)ncnc3cc2OC)CC1 [Poziotinib] (2.5 µM)
inactive: MAPK1 = 0 | MAPK4 = 0 | MAPKAPK2 = 0 | MKNK1 = 0 | NTRK2 = 0 | NTRK3 = 0 | PAK4 = 0 | PBK 0 | PDGFRB 0 | PDK1 = 0

N#C/C(=C\c1ccc2oc(=O)[nH]c2c1)C(=O)c1ccc(O)c(O)c1 (10 µM)
inactive: MAPK1 = 0 | MAPK4 = 0 | MAPKAPK2 = 0 | MKNK1 = 0 | NTRK2 = 0 | NTRK3 = 0 | PAK4 = 0 | PBK 0 | PDGFRB 0 | PDK1 = 0

Cn1cc(-c2ccc3nnc(C(F)(F)c4ccc5ncccc5c4)n3n2)cn1 (10 µM)
inactive: MAPK1 = 0 | MAPK4 = 0 | MAPKAPK2 = 0 | MKNK1 = 0 | NTRK2 = 0 | NTRK3 = 0 | PAK4 = 0 | PBK 0 | PDGFRB 0 | PDK1 = 0

CN1CC[C@H](c2c(O)cc(O)c3c(=O)cc(-c4ccc(C(F)(F)F)cc4Cl)oc23)[C@H]1CO [(2S,3R)-Voruciclib (hydrochloride)] (2.5 µM)
inactive: MAPK1 = 0 | MAPK4 = 0 | MAPKAPK2 = 0 | MKNK1 = 0 | NTRK2 = 0 | NTRK3 = 0 | PAK4 = 0 | PBK 0 | PDGFRB 0 | PDK1 = 0

c1ccc(-c2nn3c(c2-c2ccnc4cc(OCCN5CCOCC5)ccc24)CCC3)nc1 (10 µM)
inactive: MAPK1 = 0 | MAPK4 = 0 | MAPKAPK2 = 0 | MKNK1 = 0 | NTRK2 = 0 | NTRK3 = 0 | PAK4 = 0 | PBK 0 | PDGFRB 0 | PDK1 = 0

COc1ccc2c(=O)c(-c3ccccc3)coc2c1 [7-Methoxyisoflavone] (10 µM)
inactive: MAPK1 = 0 | MAPK4 = 0 | MAPKAPK2 = 0 | MKNK1 = 0 | NTRK2 = 0 | NTRK3 = 0 | PAK4 = 0 | PBK 0 | PDGFRB 0 | PDK1 = 0

Nc1cccc(S(=O)(=O)N2CCCN(S(=O)(=O)c3ccc4c(c3)OCCO4)CC2)c1 (10 µM)
inactive: MAPK1 = 0 | MAPK4 = 0 | MAPKAPK2 = 0 | MKNK1 = 0 | NTRK2 = 0 | NTRK3 = 0 | PAK4 = 0 | PBK 0 | PDGFRB 0 | PDK1 = 0

O=[N+]([O-])c1ccc(Sc2cccc[n+]2[O-])c2nonc12 (2.5 µM)
inactive: MAPK1 = 0 | MAPK4 = 0 | MAPKAPK2 = 0 | MKNK1 = 0 | NTRK2 = 0 | NTRK3 = 0 | PAK4 = 0 | PBK 0 | PDGFRB 0 | PDK1 = 0

CC[C@@H]1C(=O)N(C)c2cnc(Nc3ccc(C(=O)N[C@H]4CC[C@H](N5CCN(CC6CC6)CC5)CC4)cc3OC)nc2N1C(C)C [Volasertib] (2.5 µM)
inactive: MAPK1 = 0 | MAPK4 = 0 | MAPKAPK2 = 0 | MKNK1 = 0 | NTRK2 = 0 | NTRK3 = 0 | PAK4 = 0 | PBK 0 | PDGFRB 0 | PDK1 = 0

CCOc1nc(Nc2ccc(C(=O)N3CCOCC3)cc2OC)nc2[nH]ccc12 [LRRK2 inhibitor 1] (2.5 µM)
inactive: MAPK1 = 0 | MAPK4 = 0 | MAPKAPK2 = 0 | MKNK1 = 0 | NTRK2 = 0 | NTRK3 = 0 | PAK4 = 0 | PBK 0 | PDGFRB 0 | PDK1 = 0

C=CS(=O)(=O)c1ccc(Nc2nc(OCC3CCCCC3)c3[nH]cnc3n2)cc1 (2.5 µM)
inactive: MAPK1 = 0 | MAPK4 = 0 | MAPKAPK2 = 0 | MKNK1 = 0 | NTRK2 = 0 | NTRK3 = 0 | PAK4 = 0 | PBK 0 | PDGFRB 0 | PDK1 = 0
